In one assay the target is HA-tagged RIM1 (HA-RIM1) (UniProt Q9JIR4). Kind of assay: co-IP; HEK293T/HEK293 cells co-transfected with two tagged proteins; immunoprecipitation (HA or GluN1 antibody where told) and immunoblot. On the technique in general: In western blotting, separated proteins are transferred to a membrane and probed.
For assay [1], the target named is GFP-tagged NMDAR subunit GluN1 (GFP-GluN1) (UniProt P35439). Kind of assay: co-IP; HEK293T cells co-transfected with HA-RIM1, GFP-GluN1 and GFP-GluN2A, or HA-RIM1, GFP-GluN1 and GFP-GluN2B; immunoprecipitation with GluN2A or GluN2B antibody.
The target in assay [2] is GFP-tagged NMDAR subunit GluN2A (GFP-GluN2A) (UniProt Q00959). Described as above.
Assay [3] addresses GFP-tagged NMDAR subunit GluN1 (GFP-GluN1) (UniProt P35439). Put plainly: co-IP; HEK293T/HEK293 cells co-transfected with two tagged proteins; immunoprecipitation (HA or GluN1 antibody where told) and immunoblot.

The chains behind the UniProt entries cited, without tags or fusion partners.
UniProt Q9JIR4: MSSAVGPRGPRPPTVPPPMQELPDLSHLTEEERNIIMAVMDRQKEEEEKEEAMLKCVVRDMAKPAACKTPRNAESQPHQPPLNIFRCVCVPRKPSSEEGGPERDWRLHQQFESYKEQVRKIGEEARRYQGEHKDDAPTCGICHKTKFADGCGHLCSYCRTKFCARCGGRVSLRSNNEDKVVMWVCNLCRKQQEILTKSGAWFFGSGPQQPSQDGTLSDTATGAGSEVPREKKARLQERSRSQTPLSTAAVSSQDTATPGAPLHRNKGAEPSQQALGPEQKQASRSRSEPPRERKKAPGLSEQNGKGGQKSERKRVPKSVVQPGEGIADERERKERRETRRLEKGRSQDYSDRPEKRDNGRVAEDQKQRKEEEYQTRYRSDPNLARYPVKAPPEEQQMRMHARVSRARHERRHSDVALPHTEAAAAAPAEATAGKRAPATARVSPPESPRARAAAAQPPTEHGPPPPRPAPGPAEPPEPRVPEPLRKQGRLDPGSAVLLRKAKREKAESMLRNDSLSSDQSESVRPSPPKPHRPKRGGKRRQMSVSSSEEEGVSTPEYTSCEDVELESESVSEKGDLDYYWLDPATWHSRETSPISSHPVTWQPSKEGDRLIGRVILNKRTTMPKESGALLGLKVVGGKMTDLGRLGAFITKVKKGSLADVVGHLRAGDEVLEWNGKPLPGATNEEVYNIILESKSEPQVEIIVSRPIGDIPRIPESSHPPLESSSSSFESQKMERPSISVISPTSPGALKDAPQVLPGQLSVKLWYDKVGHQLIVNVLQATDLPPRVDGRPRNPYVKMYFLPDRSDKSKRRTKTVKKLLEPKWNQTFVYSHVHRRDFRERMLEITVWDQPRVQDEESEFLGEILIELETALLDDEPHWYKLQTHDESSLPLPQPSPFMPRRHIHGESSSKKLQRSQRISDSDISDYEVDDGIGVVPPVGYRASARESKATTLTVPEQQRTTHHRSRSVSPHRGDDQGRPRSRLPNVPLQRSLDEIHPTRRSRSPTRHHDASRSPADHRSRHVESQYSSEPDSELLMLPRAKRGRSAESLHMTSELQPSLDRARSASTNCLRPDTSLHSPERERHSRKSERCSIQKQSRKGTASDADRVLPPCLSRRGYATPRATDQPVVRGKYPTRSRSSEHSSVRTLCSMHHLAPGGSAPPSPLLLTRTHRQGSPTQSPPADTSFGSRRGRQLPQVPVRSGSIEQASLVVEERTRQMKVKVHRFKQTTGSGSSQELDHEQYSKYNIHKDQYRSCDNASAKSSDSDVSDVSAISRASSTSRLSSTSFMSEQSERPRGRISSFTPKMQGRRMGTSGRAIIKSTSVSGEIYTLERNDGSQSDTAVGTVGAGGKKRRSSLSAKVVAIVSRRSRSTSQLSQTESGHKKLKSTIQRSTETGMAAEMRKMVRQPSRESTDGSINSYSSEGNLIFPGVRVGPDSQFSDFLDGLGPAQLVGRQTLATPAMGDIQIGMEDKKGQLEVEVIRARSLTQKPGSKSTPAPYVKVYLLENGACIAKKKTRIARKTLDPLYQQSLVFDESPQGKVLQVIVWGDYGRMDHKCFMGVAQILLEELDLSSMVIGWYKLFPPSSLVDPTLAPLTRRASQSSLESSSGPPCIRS

No constants are given. Whether binding was seen depends on the method and setting. Binding seen in cells or lysates may run through a third protein.

For “GFP-tagged NMDAR subunit GluN1 (GFP-GluN1) (from UniProt P35439 19-938) (receptor)”, the binding entry in the assay with HA-tagged RIM1 (HA-RIM1) is “no binding”.

For “GFP-tagged NMDAR subunit GluN2A (GFP-GluN2A) (from UniProt Q00959 23-1464) (receptor)”, the binding entry with HA-tagged RIM1 (HA-RIM1) was “no binding”.

For “HA-tagged RIM1 (HA-RIM1) (from UniProt Q9JIR4 1-1615)”, the binding result in assay [1], in assay [2] and in assay [3] was “no binding” throughout.

Source of the values: publication PMC5995852.
